Measurements reported in the supplement of paper PMC8728848.
The other results are listed elsewhere or left out.

Experiments:
Assay in all cases: glycan array binding signal (z-score within array); higher = stronger binding
Settings in all cases: glycan notation: IUPAC condensed, linker removed
[1] = biological target: Fuc(a1-3)[Gal(b1-4)]GlcNAc(b1-3)Gal(b1-3)[Fuc(a1-4)]GlcNAc
How it was run: (§1)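 From the Consortium for Functional Glycomics database, 3228 arrays were curated, keeping only those whose protein sequence was available. Binding is given as a within-array Z-score averaged across arrays sharing a protein sequence and across linkers. Negative Z-scores can be read as non-binding.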

[2] = biological target: Fuc(a1-3)[Gal(b1-4)]GlcNAc(b1-3)Gal(b1-4)[Fuc(a1-3)]GlcNAc
How it was run: as §1

[3] = biological target: Fuc(a1-3)[Gal(b1-4)]GlcNAc(b1-3)Gal(b1-4)[Fuc(a1-3)]GlcNAc(b1-3)Gal(b1-4)[Fuc(a1-3)]GlcNAc
How it was run: as §1

[4] = biological target: Fuc(a1-3)[Gal(b1-4)]GlcNAc(b1-3)GalNAc
How it was run: as §1

[5] = biological target: Fuc(a1-3)[Gal(b1-4)]GlcNAc(b1-6)GalNAc
How it was run: as §1

[6] = biological target: Fuc(a1-3)[Gal(b1-4)]GlcNAc(b1-6)[Gal(b1-3)GlcNAc(b1-3)]Gal(b1-4)Glc
How it was run: as §1

[7] = biological target: Fuc(a1-3)[Gal(b1-4)]GlcNAc6S
How it was run: as §1

[8] = biological target: Fuc(a1-3)[Gal3S(b1-4)]Glc
How it was run: as §1

[9] = biological target: Fuc(a1-3)[Gal3S(b1-4)]GlcNAc
How it was run: as §1

[10] = biological target: Fuc(a1-3)[Gal3S(b1-4)]GlcNAc6S
How it was run: as §1

[11] = biological target: Fuc(a1-3)[GalNAc(b1-4)]GlcNAc
How it was run: as §1

[12] = biological target: Fuc(a1-3)[GalNAc(b1-4)]GlcNAc6S
How it was run: as §1

Fuc(a1-4)GlcNAc = biological target: Fuc(a1-4)GlcNAc
How it was run: as §1

Fuc(b1-3)GlcNAc = biological target: Fuc(b1-3)GlcNAc
How it was run: as §1

Gal(a1-2)Gal = biological target: Gal(a1-2)Gal
How it was run: as §1

Gal(a1-3)Gal = biological target: Gal(a1-3)Gal
How it was run: as §1

Gal(a1-3)Gal(b1-3)GlcNAc = biological target: Gal(a1-3)Gal(b1-3)GlcNAc
How it was run: as §1

[13] = biological target: Gal(a1-3)Gal(b1-3)GlcNAc(b1-2)Man
How it was run: as §1

[14] = biological target: Gal(a1-3)Gal(b1-3)GlcNAc(b1-2)Man(a1-3)[Gal(a1-3)Gal(b1-3)GlcNAc(b1-2)Man(a1-6)]Man(b1-4)GlcNAc(b1-4)GlcNAc
How it was run: as §1

[15] = biological target: Gal(a1-3)Gal(b1-3)GlcNAc(b1-3)GalNAc
How it was run: as §1

[16] = biological target: Gal(a1-3)Gal(b1-3)GlcNAc(b1-6)GalNAc
How it was run: as §1

[17] = biological target: Gal(a1-3)Gal(b1-3)[Fuc(a1-4)]GlcNAc(b1-2)Man(a1-3)[Gal(a1-3)Gal(b1-3)[Fuc(a1-4)]GlcNAc(b1-2)Man(a1-6)]Man(b1-4)GlcNAc(b1-4)GlcNAc
How it was run: as §1

Gal(a1-3)Gal(b1-4)Glc = biological target: Gal(a1-3)Gal(b1-4)Glc
How it was run: as §1

Gal(a1-3)Gal(b1-4)GlcNAc = biological target: Gal(a1-3)Gal(b1-4)GlcNAc
How it was run: as §1

[18] = biological target: Gal(a1-3)Gal(b1-4)GlcNAc(b1-2)Man
How it was run: as §1

[19] = biological target: Gal(a1-3)Gal(b1-4)GlcNAc(b1-2)Man(a1-3)[Gal(a1-3)Gal(b1-4)GlcNAc(b1-2)Man(a1-6)]Man(b1-4)GlcNAc(b1-4)GlcNAc
How it was run: as §1

[20] = biological target: Gal(a1-3)Gal(b1-4)GlcNAc(b1-3)GalNAc
How it was run: as §1

[21] = biological target: Gal(a1-3)Gal(b1-4)GlcNAc(b1-6)GalNAc
How it was run: as §1

[22] = biological target: Gal(a1-3)Gal(b1-4)[Fuc(a1-3)]GlcNAc
How it was run: as §1

[23] = biological target: Gal(a1-3)Gal(b1-4)[Fuc(a1-3)]GlcNAc(b1-2)Man(a1-3)[Gal(a1-3)Gal(b1-4)[Fuc(a1-3)]GlcNAc(b1-2)Man(a1-6)]Man(b1-4)GlcNAc(b1-4)GlcNAc
How it was run: as §1

Gal(a1-3)GalNAc = biological target: Gal(a1-3)GalNAc
How it was run: as §1

[24] = biological target: Gal(a1-3)[Gal(a1-4)]Gal(b1-4)GlcNAc
How it was run: as §1

[25] = biological target: Gal(a1-4)Gal(b1-3)GlcNAc(b1-2)Man(a1-3)[Gal(a1-4)Gal(b1-3)GlcNAc(b1-2)Man(a1-6)]Man(b1-4)GlcNAc(b1-4)GlcNAc
How it was run: as §1

Gal(a1-4)Gal(b1-4)Glc = biological target: Gal(a1-4)Gal(b1-4)Glc
How it was run: as §1

Gal(a1-4)Gal(b1-4)GlcNAc = biological target: Gal(a1-4)Gal(b1-4)GlcNAc
How it was run: as §1

[26] = biological target: Gal(a1-4)Gal(b1-4)GlcNAc(b1-2)Man(a1-3)[Gal(a1-4)Gal(b1-4)GlcNAc(b1-2)Man(a1-6)]Man(b1-4)GlcNAc(b1-4)GlcNAc
How it was run: as §1

[27] = biological target: Gal(a1-4)Gal(b1-4)GlcNAc(b1-3)Gal(b1-4)Glc
How it was run: as §1

Gal(a1-4)GlcNAc = biological target: Gal(a1-4)GlcNAc
How it was run: as §1

B1: RsaA-N-term (Caulobacter crescentus), P35828 (protein)
chain: MAYTTAQLVTAYTNANLGKAPDAATTLTLDAYATQTQTGGLSDAAALTNTLKLVNSTTAVAIQTYQFFTGVAPSAAGLDFLVDSTTNTNDLNDAYYSKFAQENRFINFSINLATGAGAGATAFAAAYTGVSYAQTVATAYDKIIGNAVATAAGVDVAAAVAFLSRQANIDYLTAFVRANTPFTAAADIDLAVKAALIGTILNAATVSGIGGYATATAAMINDLSDGALSTDNAAGVNLFTAYPSSGVSGSTLSLTTGTDTLTGTANNDTFVAGEVAGDGSGWSHPQFEKGG
glycan array binding signal (z-score) [1]: -0.179
glycan array binding signal (z-score) [2]: 1.23
glycan array binding signal (z-score) [3]: -0.91
glycan array binding signal (z-score) [4]: -0.014
glycan array binding signal (z-score) [5]: 0.368
glycan array binding signal (z-score) [6]: -1.36
glycan array binding signal (z-score) [7]: -0.166
glycan array binding signal (z-score) [8]: -0.005
glycan array binding signal (z-score) [9]: -0.602
glycan array binding signal (z-score) [10]: -0.52
glycan array binding signal (z-score) [11]: 0.166
glycan array binding signal (z-score) [12]: -0.365
glycan array binding signal (z-score) (Fuc(a1-4)GlcNAc): 1.04
glycan array binding signal (z-score) (Fuc(b1-3)GlcNAc): 0.045
glycan array binding signal (z-score) (Gal(a1-2)Gal): 0.297
glycan array binding signal (z-score) (Gal(a1-3)Gal): -0.71
glycan array binding signal (z-score) (Gal(a1-3)Gal(b1-3)GlcNAc): -0.108
glycan array binding signal (z-score) [13]: 0.223
glycan array binding signal (z-score) [14]: 0.121
glycan array binding signal (z-score) [15]: -1.11
glycan array binding signal (z-score) [16]: 0.171
glycan array binding signal (z-score) [17]: -0.105
glycan array binding signal (z-score) (Gal(a1-3)Gal(b1-4)Glc): -0.288
glycan array binding signal (z-score) (Gal(a1-3)Gal(b1-4)GlcNAc): 0.324
glycan array binding signal (z-score) [18]: 0.181
glycan array binding signal (z-score) [19]: -0.761
glycan array binding signal (z-score) [20]: -0.206
glycan array binding signal (z-score) [21]: -0.692
glycan array binding signal (z-score) [22]: 0.205
glycan array binding signal (z-score) [23]: 0.451
glycan array binding signal (z-score) (Gal(a1-3)GalNAc): 0.296
glycan array binding signal (z-score) [24]: 0.711
glycan array binding signal (z-score) [25]: 1.43
glycan array binding signal (z-score) (Gal(a1-4)Gal(b1-4)Glc): -0.974
glycan array binding signal (z-score) (Gal(a1-4)Gal(b1-4)GlcNAc): -0.399
glycan array binding signal (z-score) [26]: 0.843
glycan array binding signal (z-score) [27]: -2.79
glycan array binding signal (z-score) (Gal(a1-4)GlcNAc): 0.59
